Not every detail of the peptide structures is certain; ends, links or a residue may be inferred. For part of these data: At least one structure is not confirmed: it was looked up by name or label, or the drawing left a doubt. No end group written: not given here.
How the values were obtained:
[1] = tested on: AtPEPR1 and AtPEPR2 transcripts; assay: Expression analysis of AtPEPR1 and AtPEPR2 (Northern hybridization, quantitative RT-PCR); type: in vivo, Arabidopsis thaliana; conditions: within 30 min
Method: Expression analysis of AtPEPR1 and AtPEPR2. […] In order to elucidate the role of AtPEPR2 in AtPeps signal transduction, the gene expression patterns were analyzed in comparison with AtPEPR1.

[2] = tested on: Arabidopsis suspension cultured cells; assay: Alkalinization assay with Arabidopsis suspension cultured cells; type: cell-based, Arabidopsis thaliana; conditions: pH of media after 20 min
Method: For the alkalinization assay, cells suspensions are grown in a volume of 40 ml in a 125 ml flask. Tobacco and Arabidopsis cells are typically grown for 3-5 days before use. Tomato cells are typically grown for 4-7 days before use. Soybean cells are generally grown for 3-7 days before use. Preferably, cells are in mid to log or log phase when they are to be used for the alkalinization assay. A 1 ml pipette tip with the end cut off (to prevent clogging of the tip with the cells) is used to aliquot 1 ml of the cells from the suspension into a well in a 24-well culture cluster plate. […] After 20 min, the pH of the cell media is measured and recorded.
Alkalinization Assay. […] Aliquots of 1-10 μL from extracts or fractions eluted from HPLC columns were added to cells and the pH of the media was monitored after 20 min.
Alkalinization assay. Medium alkalinization activity of Arabidopsis suspension cultured cells by AtPep1 analogs was analyzed as previously described for systemin (Pearce et al., Science 253:895-897, 1991), RALF (Pearce et al. Proc. Natl. Acad. Sci. USA 98:12843-12847, 2001), HypSys peptides (Pearce and Ryan. J. Biol. Chem. 278:30044-30050, 2003; Pearce et al., Nature 411:817-820, 2001), and AtPep1 (supra). The alkalinization activity of azido-Cys-AtPep1 were carried out after incubation the analog with cells in darkness for 10 min, when the pH was recorded. […]

Molecule | induction of AtPEPR1 and AtPEPR2 transcripts [1] | activity in the alkalinization assay [2]
NC1(C(=O)O)CC1 [aminocyclopropanecarboxylic acid, reference compound] | not by methyl salicylate or aminocyclopropanecarboxylic acid | –
SLNVMRKGIRKQPVSSGKRGGVN [AtPep2, SLNVMRKGIRKQPVSSGKRGGVN] | strong inducer | identical activities as the native peptides

From patent publication US8686224B2, “Plant defense signal peptides” (priority 2005, dated 2014)
